Test results published in PMC3100183 (Biochemistry, 2011).

Test system: 47 KDa protein in U937 cell membranes
Type: binding
Conditions: U937 cell (mixed) membranes, 1 nM photoprobe

## Cc1c(C(=O)NN2CCCCC2)nn(-c2ccc(Cl)cc2Cl)c1-c1ccc(I)cc1 [AM251]
  Inhibition of photolabeling of the 47 KDa protein, in words: not inhibited
